# According to the supplement of paper PMC10849652:
# Amino acid sequences for entries named in this document (tags omitted). A change or cut given only in a name is not applied to a line headed by its entry.
# UniProt Q92934: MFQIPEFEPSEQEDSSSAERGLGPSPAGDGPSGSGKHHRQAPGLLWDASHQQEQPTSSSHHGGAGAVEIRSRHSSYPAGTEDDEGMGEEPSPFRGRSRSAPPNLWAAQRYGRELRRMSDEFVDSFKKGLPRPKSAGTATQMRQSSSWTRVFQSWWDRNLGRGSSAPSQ
# UniProt Q9HB09: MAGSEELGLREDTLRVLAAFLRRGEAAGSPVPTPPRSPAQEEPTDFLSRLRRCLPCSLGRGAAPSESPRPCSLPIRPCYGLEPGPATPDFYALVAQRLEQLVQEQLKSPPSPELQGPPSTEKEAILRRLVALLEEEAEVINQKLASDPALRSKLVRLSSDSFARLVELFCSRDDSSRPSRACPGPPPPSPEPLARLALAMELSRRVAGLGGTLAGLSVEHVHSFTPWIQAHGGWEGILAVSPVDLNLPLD
# UniProt Q9HCU9: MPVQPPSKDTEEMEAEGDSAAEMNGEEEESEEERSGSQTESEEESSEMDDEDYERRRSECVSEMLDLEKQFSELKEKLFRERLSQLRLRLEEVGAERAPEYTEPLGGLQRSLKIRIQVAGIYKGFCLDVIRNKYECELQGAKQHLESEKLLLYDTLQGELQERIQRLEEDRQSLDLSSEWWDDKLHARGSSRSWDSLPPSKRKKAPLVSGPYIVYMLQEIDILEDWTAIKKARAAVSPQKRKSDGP
# UniProt O00512: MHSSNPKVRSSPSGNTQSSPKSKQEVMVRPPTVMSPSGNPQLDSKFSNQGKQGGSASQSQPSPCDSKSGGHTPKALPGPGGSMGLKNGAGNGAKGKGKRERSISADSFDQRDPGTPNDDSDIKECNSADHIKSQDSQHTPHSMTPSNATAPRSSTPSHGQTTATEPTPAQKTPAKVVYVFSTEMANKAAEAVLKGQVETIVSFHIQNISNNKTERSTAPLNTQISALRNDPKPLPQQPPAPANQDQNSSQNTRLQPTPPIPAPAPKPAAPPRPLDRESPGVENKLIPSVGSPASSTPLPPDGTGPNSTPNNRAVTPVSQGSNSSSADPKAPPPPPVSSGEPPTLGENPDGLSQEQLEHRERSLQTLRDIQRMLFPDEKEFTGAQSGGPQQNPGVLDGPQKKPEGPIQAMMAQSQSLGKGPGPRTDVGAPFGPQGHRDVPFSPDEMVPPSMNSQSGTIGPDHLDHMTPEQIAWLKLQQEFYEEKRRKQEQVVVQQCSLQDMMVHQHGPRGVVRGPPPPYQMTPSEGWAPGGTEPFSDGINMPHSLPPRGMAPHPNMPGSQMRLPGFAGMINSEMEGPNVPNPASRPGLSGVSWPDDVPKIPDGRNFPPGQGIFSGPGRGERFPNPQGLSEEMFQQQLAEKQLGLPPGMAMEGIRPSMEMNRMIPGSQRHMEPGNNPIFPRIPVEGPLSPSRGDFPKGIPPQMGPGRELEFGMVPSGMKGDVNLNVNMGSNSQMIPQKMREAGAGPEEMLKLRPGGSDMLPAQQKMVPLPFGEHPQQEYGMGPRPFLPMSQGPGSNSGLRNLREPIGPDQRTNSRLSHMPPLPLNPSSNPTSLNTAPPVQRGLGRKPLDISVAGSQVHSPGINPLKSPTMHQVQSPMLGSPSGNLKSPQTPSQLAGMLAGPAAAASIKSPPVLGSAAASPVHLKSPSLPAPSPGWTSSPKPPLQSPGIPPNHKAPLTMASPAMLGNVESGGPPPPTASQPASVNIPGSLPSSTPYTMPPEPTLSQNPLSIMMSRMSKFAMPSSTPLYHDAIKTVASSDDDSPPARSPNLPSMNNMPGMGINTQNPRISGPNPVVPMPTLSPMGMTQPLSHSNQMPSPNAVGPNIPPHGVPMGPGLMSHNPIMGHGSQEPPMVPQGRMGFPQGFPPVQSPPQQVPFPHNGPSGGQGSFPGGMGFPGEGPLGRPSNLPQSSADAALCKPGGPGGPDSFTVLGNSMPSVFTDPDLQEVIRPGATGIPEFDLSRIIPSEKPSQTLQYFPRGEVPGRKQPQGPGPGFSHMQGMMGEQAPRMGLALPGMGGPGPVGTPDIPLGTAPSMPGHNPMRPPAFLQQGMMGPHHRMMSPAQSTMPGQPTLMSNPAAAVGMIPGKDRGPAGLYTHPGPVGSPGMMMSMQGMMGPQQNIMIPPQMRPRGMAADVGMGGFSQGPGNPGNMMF
# UniProt Q9BYG0: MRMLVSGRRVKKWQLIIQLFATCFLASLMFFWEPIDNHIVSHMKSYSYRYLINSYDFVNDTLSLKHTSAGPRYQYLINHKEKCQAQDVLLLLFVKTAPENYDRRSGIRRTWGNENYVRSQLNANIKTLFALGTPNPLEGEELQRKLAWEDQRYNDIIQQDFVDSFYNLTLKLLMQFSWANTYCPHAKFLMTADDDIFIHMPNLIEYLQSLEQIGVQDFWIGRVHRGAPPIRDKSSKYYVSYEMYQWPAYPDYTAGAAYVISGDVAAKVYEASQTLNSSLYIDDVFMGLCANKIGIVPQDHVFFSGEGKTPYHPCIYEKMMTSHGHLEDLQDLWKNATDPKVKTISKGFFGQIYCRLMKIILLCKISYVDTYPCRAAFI
# UniProt O43521, whole entry, looked up: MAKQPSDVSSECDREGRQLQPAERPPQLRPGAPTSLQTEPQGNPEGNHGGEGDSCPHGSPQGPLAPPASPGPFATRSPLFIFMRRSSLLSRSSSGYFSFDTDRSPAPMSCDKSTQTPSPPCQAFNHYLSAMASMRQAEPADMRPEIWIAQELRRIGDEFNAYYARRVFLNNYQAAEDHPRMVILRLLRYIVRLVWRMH
# UniProt Q9BQE9, whole entry, looked up: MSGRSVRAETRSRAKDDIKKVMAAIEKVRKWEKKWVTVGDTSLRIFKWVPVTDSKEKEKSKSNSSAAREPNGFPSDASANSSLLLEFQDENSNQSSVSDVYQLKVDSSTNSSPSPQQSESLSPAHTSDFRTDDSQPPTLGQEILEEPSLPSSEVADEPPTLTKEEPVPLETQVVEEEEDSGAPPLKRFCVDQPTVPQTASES
# UniProt P11274: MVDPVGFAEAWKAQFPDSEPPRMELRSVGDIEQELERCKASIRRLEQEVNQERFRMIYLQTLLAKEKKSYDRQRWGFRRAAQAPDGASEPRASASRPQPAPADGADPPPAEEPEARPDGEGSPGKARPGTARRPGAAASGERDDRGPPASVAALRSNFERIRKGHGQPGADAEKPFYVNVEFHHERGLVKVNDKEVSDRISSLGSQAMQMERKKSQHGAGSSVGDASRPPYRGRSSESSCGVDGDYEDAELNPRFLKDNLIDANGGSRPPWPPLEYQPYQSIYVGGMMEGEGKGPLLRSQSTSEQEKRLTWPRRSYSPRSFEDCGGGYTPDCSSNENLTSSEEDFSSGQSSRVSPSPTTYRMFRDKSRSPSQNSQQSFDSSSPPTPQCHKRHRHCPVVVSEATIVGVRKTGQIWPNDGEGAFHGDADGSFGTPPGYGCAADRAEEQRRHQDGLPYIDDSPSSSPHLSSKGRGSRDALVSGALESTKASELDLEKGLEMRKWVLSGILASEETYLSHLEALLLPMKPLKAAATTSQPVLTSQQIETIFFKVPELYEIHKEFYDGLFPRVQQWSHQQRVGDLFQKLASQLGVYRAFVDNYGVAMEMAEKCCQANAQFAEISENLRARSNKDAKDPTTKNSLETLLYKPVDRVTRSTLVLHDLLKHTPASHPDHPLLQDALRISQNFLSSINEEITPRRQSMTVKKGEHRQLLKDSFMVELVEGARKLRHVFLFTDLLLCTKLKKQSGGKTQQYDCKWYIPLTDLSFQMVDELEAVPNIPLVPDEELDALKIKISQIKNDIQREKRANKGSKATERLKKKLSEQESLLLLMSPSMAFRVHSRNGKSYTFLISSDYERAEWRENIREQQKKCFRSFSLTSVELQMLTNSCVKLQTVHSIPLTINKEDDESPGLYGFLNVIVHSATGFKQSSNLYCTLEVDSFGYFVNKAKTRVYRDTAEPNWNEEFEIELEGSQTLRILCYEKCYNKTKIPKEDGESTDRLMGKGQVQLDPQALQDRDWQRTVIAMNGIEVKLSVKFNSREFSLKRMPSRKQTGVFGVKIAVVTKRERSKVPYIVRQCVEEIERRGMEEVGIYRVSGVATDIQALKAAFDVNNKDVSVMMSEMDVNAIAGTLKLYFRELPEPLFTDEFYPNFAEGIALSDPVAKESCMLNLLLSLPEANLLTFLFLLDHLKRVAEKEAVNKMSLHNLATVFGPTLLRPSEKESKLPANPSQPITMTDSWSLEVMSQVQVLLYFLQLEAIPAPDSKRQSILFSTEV
# UniProt Q96FH0: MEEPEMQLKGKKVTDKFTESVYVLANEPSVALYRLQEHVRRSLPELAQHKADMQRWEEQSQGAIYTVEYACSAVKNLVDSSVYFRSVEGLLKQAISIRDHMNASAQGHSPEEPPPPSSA
# UniProt Q9H6U6: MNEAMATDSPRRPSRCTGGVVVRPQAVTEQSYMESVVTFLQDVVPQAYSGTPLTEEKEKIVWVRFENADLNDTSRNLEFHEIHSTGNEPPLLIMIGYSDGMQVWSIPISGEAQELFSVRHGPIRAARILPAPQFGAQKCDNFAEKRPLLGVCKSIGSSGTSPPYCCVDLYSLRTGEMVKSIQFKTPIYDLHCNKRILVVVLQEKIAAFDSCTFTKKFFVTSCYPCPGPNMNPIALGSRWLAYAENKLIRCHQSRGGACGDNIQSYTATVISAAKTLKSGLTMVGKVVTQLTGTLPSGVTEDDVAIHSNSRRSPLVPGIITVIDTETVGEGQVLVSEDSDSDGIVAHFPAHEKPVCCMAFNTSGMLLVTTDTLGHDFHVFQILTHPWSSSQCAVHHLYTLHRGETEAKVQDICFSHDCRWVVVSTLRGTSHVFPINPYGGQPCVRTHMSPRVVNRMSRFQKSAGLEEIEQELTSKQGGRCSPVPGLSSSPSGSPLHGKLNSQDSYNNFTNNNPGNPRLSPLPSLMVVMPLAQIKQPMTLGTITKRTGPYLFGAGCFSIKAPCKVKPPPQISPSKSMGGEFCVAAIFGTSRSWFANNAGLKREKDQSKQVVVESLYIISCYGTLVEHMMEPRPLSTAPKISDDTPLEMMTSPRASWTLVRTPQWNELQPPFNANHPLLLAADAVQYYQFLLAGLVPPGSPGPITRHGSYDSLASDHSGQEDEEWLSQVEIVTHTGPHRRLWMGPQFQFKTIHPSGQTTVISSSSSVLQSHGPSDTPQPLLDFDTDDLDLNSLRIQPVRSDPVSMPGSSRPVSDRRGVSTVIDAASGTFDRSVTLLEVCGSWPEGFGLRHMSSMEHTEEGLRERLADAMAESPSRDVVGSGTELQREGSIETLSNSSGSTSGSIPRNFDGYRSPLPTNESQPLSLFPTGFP
# UniProt Q9NWD9: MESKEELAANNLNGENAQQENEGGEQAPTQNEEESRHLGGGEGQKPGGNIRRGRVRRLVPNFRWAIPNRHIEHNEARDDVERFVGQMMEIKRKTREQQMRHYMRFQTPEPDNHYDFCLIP
# UniProt Q7Z5W3: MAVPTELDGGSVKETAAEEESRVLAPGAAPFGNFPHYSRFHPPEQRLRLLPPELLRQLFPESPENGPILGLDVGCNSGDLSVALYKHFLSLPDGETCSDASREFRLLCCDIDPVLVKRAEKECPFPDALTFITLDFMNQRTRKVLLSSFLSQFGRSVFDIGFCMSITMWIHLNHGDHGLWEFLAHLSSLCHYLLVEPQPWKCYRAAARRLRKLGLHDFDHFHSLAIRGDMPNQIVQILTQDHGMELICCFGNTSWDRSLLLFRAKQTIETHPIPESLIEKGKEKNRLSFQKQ
# UniProt P30043: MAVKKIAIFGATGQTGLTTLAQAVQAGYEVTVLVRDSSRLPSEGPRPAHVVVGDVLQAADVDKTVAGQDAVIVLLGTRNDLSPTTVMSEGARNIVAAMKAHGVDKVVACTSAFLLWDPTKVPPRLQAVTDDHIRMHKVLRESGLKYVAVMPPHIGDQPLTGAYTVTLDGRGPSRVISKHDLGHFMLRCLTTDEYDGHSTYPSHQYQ
# UniProt Q9NYM9: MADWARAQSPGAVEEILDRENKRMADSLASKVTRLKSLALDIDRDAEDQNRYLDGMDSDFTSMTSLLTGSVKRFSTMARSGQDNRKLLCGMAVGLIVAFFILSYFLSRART
# UniProt Q8NCR0: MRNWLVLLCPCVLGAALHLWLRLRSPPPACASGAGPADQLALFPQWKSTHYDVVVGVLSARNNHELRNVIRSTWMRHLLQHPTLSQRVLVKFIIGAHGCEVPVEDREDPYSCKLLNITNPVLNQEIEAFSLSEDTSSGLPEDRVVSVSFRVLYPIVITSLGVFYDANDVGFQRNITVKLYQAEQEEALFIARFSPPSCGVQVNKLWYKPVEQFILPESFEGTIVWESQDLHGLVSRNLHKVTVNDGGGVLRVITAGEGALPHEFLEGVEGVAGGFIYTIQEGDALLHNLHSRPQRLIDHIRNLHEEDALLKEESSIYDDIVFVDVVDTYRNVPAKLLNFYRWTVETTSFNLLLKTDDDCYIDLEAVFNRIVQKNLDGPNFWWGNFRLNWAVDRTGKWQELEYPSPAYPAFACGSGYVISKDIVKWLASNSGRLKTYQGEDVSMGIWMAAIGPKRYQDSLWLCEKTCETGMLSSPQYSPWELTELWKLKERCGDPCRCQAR
# UniProt Q8IXM2, whole entry, looked up: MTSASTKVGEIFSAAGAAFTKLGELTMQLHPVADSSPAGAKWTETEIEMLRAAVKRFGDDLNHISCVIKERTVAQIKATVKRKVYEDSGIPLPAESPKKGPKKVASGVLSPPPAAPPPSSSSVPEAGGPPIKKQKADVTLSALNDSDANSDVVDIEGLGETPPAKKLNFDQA
# The list shows a part of the results.
# Key:
# Experiment in all cases: log2 fold change, soluble protein after heating vs DMSO (PISA); higher = thermal stabilisation; K562 cells, 10 uM, 30 min; active = over 0.2 and 3.5 SD of the protein, either way, in both replicates (recomputed)
# [1] = compound: CC1=C2C(=CC=C1)N=C(N(C2=O)C3=CC=CC=C3C)CN4C=NC5=C(N=CN=C54)N
# Outline: (§1)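 Soluble protein was quantified by TMTpro 16plex LC-MS/MS after channel sums were equalised. It was obtained as the supernatant after 21,000xg for 90 min from pooled aliquots of K562 cells (2×10^6 cells/mL, 10 μM compound, 30 min) heated for 3 min across 48°C-58°C and extracted in PBS with 0.5% NP-40 at 4°C. Thermal stability values are relative to control samples and come from duplicates. They are given as log2 fold changes.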
# [2] = compound: C1=CC=C(C=C1)[C@H](COC2=CC3=C(C=C2)NC(=O)N3)NC(=O)C4=CC=CN(C4=O)CC5=CC(=C(C=C5)F)F
# Outline: as §1
# [3] = compound: CC1=C(SC2=C1C(=N[C@H](C3=NN=C(N32)C)CC(=O)N)C4=CC=C(C=C4)Cl)C
# Outline: as §1
# [4] = compound: c1ccc([C@@H]2C[C@H]2NC2CCNCC2)cc1
# Outline: as §1
# [5] = compound: Cc1sc2c(c1C)C(c1ccc(Cl)cc1)=N[C@@H](CC(=O)OC(C)(C)C)c1nnc(C)n1-2
# Outline: as §1
Target,log2 fold change [1],log2 fold change [2],log2 fold change [3],log2 fold change [4],log2 fold change [5]
BFAR (UniProt Q9NZS9),inactive: 0.063,,,,
BAD (UniProt Q92934),inactive: -0.086,inactive: -0.001,inactive: -0.042,inactive: 0.032,
BCL2L12 (UniProt Q9HB09),inactive: -0.04,inactive: 0.21,inactive: 0.147,inactive: 0.015,
AVEN (UniProt Q9NQS1),inactive: -0.027,inactive: -0.063,inactive: -0.052,inactive: -0.027,
BCL7C isoform 2 (UniProt Q8WUZ0),,inactive: 0.094,inactive: 0.04,inactive: -0.038,
BRMS1 (UniProt Q9HCU9),,,,,inactive: -0.011
BLZF1 (UniProt Q9H2G9),,,inactive: 0.094,inactive: 0.09,
BCL9 (UniProt O00512),inactive: 0.172,,inactive: 0.033,inactive: -0.084,inactive: -0.086
ATRAID isoform 3 (UniProt Q6UW56),inactive: 0.071,inactive: 0.045,inactive: 0.049,inactive: -0.03,inactive: 0.02
AURKAIP1 (UniProt Q9NWT8),inactive: -0.33,,inactive: -0.282,inactive: 0.059,inactive: 0.062
BPNT1 (UniProt A6NF51),inactive: -0.078,inactive: -0.048,,,inactive: 0.056
ATXN2 (UniProt F8W0B5),,,inactive: -0.125,inactive: -0.029,
"BRAF, A0A2R8Y8E0",,,,,inactive: 0.162
B3GNT5 (UniProt Q9BYG0),inactive: 0.106,inactive: -0.1,inactive: -0.021,inactive: 0.029,
BAZ1B (UniProt Q9UIG0),inactive: 0.085,,inactive: 0.047,inactive: -0.125,
BCL2L11 (UniProt O43521),inactive: -0.022,,inactive: 0.042,inactive: -0.015,inactive: -0.048
BCL7B (UniProt Q9BQE9),inactive: 0.075,,inactive: -0.141,inactive: -0.056,
BCR (UniProt P11274),,inactive: 0.126,inactive: -0.157,inactive: 0.154,inactive: 0.32

# Reformatted with tabs: entries from further up.
Target	log2 fold change [1]	log2 fold change [2]	log2 fold change [3]	log2 fold change [4]	log2 fold change [5]
BFAR (UniProt Q9NZS9)	inactive: 0.063				
AURKAIP1 (UniProt Q9NWT8)	inactive: -0.33		inactive: -0.282	inactive: 0.059	inactive: 0.062

# Later entries.

Target,log2 fold change [1],log2 fold change [2],log2 fold change [3],log2 fold change [4],log2 fold change [5]
BORCS8 (UniProt Q96FH0),,,,,inactive: -0.046
BCAS3 isoform 8 (UniProt Q9H6U6),,,inactive: -0.05,inactive: 0.016,inactive: 0.126
BNIP3 (UniProt Q12983),inactive: 0.11,inactive: -0.01,,,inactive: 0.006
BCL7A isoform 2 (UniProt Q4VC05),,,,,inactive: -0.012
BEX4 (UniProt Q9NWD9),,inactive: -0.016,inactive: 0.031,inactive: 0.114,
BRCA1 isoform 7 (UniProt P38398),inactive: -0.355,,,,
BNIP3L (UniProt O60238),inactive: 0.169,,inactive: 0.277,inactive: 0.044,inactive: 0.009
AURKB isoform 5 (UniProt Q96GD4),inactive: -0.179,,,,inactive: 0.14
AZI2 (UniProt Q9H6S1),inactive: -0.047,inactive: 0.034,,,inactive: 0.136
BCDIN3D (UniProt Q7Z5W3),,inactive: -0.024,inactive: -0.236,inactive: -0.025,inactive: 0.074
BLVRB (UniProt P30043),inactive: -0.01,inactive: -0.029,inactive: 0.027,inactive: 0.013,inactive: -0.006
BAIAP2 isoform 4 (UniProt Q9UQB8),,,inactive: 0.029,inactive: 0.151,inactive: -0.206
BIN1 (UniProt O00499),inactive: 0.157,,,,
BET1L (UniProt Q9NYM9),inactive: 0.157,,inactive: 0.115,inactive: -0.007,inactive: -0.09
B3GALNT2 (UniProt Q8NCR0),inactive: 0.093,inactive: 0.018,,,inactive: 0.005
BAP18 isoform 3 (UniProt Q8IXM2),,,,,inactive: 0.041
ATRX (UniProt P46100),,,inactive: 0.048,inactive: -0.143,
